From PubChem BioAssay record AID1159506 (NCATS, 2015).

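Genome-wide siRNA knockdown in TC32 Ewing sarcoma cells, comparing luciferase light from an NR0B1-promoter reporter with a CMV-promoter reporter 48 hours after transfection. Each siRNA was applied at 20 nM. A z-score of the log NR0B1-over-CMV signal, less the median of siRNAs with the same seed; more negative means a stronger specific loss of the NR0B1 reporter.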

The strongest results of the screen are mostly left out here. Sequences are the guide (antisense) strand, without overhang.

siRNA,target gene,seed-corrected z-score
AAUAGUACACUGUUUCUCC,IL20RB,-0.264
UAGCUGAUGAGCAUAAGUA,OR1E1,-0.5241
AAAAUGGUCUGUAAUAUUC,SMA4,0.05499
UAACUUCGUAGGAAGAUAC,PHKA1,-0.2291
UUAGCACGUACAAUGGGCG,VPS18,0.5532
ACUGUAGGUACUUAAGUCC,EYA4,-0.9141
AAAAGUACCAACAAUUUUC,VWC2,0.4658
AAAGUUCACAUUCCGGACC,SERPINE2,0.3023
AAAAGGGAAACCAGUGUGG,TCAIM,0.9885
UUUCCUAUAGUGGAAGACU,LINC00326,0.2889
UUCAUGGACACCUCUAGCC,DNAH17,0.1925
UGUUGUGCAAAUGUAGCUG,BCL11B,0.3205
UUUAUCUUUAACAAUCAGG,TMIGD1,0.08368
AUAAUGACAAUCUCUCUAU,GIMAP2,1.281
UAGUUGAACAUGAACUAAC,FAM217A,1.146
UCAAUUGUCAACCUUAGGG,GABRG2,0.1911
UAAGAGUCCAGGAUUUAUC,TPTE2P1,-0.2428
UUGCUGCUAAGGAUCUUGG,NEK8,1.054
UACAUAAAGAUUCCUGUCC,OR5B12,-0.7739
UUGGAUUCACGCUUUUUGU,SPATA45,2.076
AUACCUACAUGUAAAGCCC,ZNF607,-0.6642
UUGAGGAUAAGGAUGGGUG,BPIFB3,-0.982
UUAGCGACAGGAACACGCC,SBNO2,0.2313
UGACUUCACAUCUUGUCGG,ADD2,-0.778
UACUCCUUCAUCUAACAUC,AMDHD1,0.3016
UGCCUUUUCAGAUCAGAUG,ZBTB14,-0.1464
UCUAAUUCCCAUAUGUUGC,MEIS1,0.227
UGCUUGUUAAUGUUUUUCA,RNASE7,1.345
UUACAUCAUAGACAGCUGC,AGPAT3,1.166
AAACUCUGCAAGAAUAUUC,WFDC5,-0.1168
UACAGUAAUUCGUCAUUUG,EAPP,0.2993
UCCAGUAAUAAACUAAACC,TMEM68,1.453
UUUGUAUCUGUGAUCGUCG,TBX5,-0.7714
UACCUAUUAGCAGAGCUUC,ENOX1,-0.1928
UAAGUGAAAAUCGUUGUGC,OR2F2,0.9798
AUACUUGUCACCUUUGAAG,MMP24,-1.737
ACACCAAACAGAAAGCCGG,SLC17A9,0.3251
UCUAUGUCUACAUUGUCUG,BEND4,-0.7999
UGAGAUGUGAGUGAUUGCG,ZNF502,-0.4637
UCUGUUGUUGCUGCGCUUG,MNT,2.298
UUCCGGUUCAUCGAAGGUC,GRAP2,0.8357
UAGUGGUCAGUGCAUAUCG,C12orf10,-0.4678
UCUAGGUUCUGCAAAUUUC,SNX14,0.2439
AAUGCGUUCAGCAAAUGCC,CD274,0.6086
CCAUUUUCCGUGGAGAAGC,HPS1,0.07596
UAAGACACCCGGGUAGAUG,RNF186,0.04976
UAUUCUCACAUUUGAAAGC,C8orf22,0.6578
AUUCUGUGAAAAUAAGCCU,PLA2G16,-0.9596
UACGGUGCCAUCAUUAGCG,LOC729461,0.3343
UUUUAGCUCCUUAUCAGUG,C14orf93,0.3785
UUCAAUGCCUAAACCCUCC,FLJ36848,0.78
UCUUUUGUUGGAGAUCUUC,KRT40,-0.6951
UUAGGUCAAAACAGGAGGC,THAP2,1.112
AUCUUGUUGAGGAUAGUGC,RAB4B,-0.2501
UGUGGAAUAUUGCAUGAUC,KRCC1,0.6383
UGAACCUUCAUUCACCACC,HINT1,0.7018
UUGUUCAGCAGAAGCAUCC,SSPO,0.3111
UUCCGUUUCACUACAAGGG,CYP4F8,0.4205
UAGCAAUAGAGGGAGUAGG,GAREM2,-0.7483
UGUUUGAGCAGUGACACUC,UNC45B,-0.03425

Some entries from above, unchanged:

UAGUUGAACAUGAACUAAC against FAM217A read seed-corrected z-score 1.146.
UCAAUUGUCAACCUUAGGG against GABRG2 read seed-corrected z-score 0.1911.
UGCCUUUUCAGAUCAGAUG against ZBTB14 read seed-corrected z-score -0.1464.
UUGCUGCUAAGGAUCUUGG against NEK8 read seed-corrected z-score 1.054.
AAACUCUGCAAGAAUAUUC against WFDC5 read seed-corrected z-score -0.1168.
ACUGUAGGUACUUAAGUCC against EYA4 read seed-corrected z-score -0.9141.